Drawing on publication PMC5019376, this text covers binding for two substances.

These are yes or no findings as the source states them, for the method shown. In cells and extracts the contact can be indirect. Binding can be weak; no strength is given. Where a sequence is shown, tags or fusion partners need not be part of it.

In the test the target is T1, TIR1 (wild type, BiFC fusion) (Arabidopsis) (UniProt Q570C0).
T1 sequence: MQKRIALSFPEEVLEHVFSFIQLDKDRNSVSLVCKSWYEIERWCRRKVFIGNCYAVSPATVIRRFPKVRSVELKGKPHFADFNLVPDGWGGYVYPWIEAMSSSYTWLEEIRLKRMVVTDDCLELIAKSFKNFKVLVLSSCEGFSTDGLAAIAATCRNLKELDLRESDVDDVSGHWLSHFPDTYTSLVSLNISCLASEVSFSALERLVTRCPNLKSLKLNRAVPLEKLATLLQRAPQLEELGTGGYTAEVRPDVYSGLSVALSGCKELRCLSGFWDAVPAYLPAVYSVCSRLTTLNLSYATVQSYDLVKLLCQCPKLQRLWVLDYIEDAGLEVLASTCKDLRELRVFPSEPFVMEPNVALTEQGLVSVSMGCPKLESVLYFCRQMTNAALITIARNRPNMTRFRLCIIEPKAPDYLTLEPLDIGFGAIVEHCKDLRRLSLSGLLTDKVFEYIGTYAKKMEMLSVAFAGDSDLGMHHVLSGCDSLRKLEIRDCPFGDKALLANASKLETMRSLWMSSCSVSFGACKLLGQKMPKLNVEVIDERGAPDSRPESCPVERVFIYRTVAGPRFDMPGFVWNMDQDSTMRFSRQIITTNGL
The experiment in a line: split reporter; BiFC after transient expression in Nicotiana benthamiana leaves, confocal imaging; some TIR1-TIR1 samples with co-expressed Myc:ASK1 and 100 uM CHX.

As for “TIR1 mutated at Glu141 (BiFC fusion) (from UniProt Q570C0)”, the binding entry is on record as “binds”. “TIR1 mutated at Ser139 (BiFC fusion) (from UniProt Q570C0)”: the binding result is given as “binds”.
